The text below walks through data of article doi:10.1101/2025.07.15.664663.

Substitutions are numbered along the chain they refer to. Numbers in names are those of the source. These are yes or no findings as the source states them, for the method shown. Some entries that bind do so weakly or less than the wild type.

The target of experiment [1] is hen egg-white lysozyme (hen) (UniProt P00698). Kind of experiment: ITC. Background: In ITC the heat of successive injections is recorded.
Experiment [2] shares this target. The experiment is described as follows: solvent PRE NMR.
The target is the same in experiment [3]. The experiment is described as follows: intermolecular PRE NMR.

B1: Escherichia coli chaperone Spy (protein, UniProt P77754 24-161)
chain: ADTTTAAPADAKPMMHHKGKFGPHQDMMFKDLNLTDAQKQQIREIMKGQRDQMKRPPLEERRAMHDIIASDTFDKVKAEAQIAKMEEQRKANMLAHMETQNKIYNILTPEQKKQFNANFEKRLTERPAAKGKMPATAE
Take B1: the binding entry in experiment [1] and in experiment [2] was “binds weakly” throughout.

B2: MTSL-attached T99C mutant of Spy (protein, UniProt P77754 24-161)
chain: B1 chain with T99C
modifications: MTSL spin label on the cysteine at 99
On to B2, for which the binding entry in experiment [3] is “binds weakly”.

B3: MTSL-attached T35C mutant of Spy (protein, UniProt P77754 24-161)
chain: B1 chain with T35C
modifications: MTSL spin label on the cysteine at 35
As for B3, the binding result in experiment [3] is recorded as “binds weakly”.

B4: MTSL-attached T124C mutant of Spy (protein, UniProt P77754 24-161)
chain: B1 chain with T124C
modifications: MTSL spin label on the cysteine at 124
With B4, the binding entry in experiment [3] was “binds weakly”.

B5: MTSL-attached M53C mutant of Spy (protein, UniProt P77754 24-161)
chain: B1 chain with M53C
modifications: MTSL spin label on the cysteine at 53
B5: in experiment [3], the binding entry is “binds weakly”.
